# Test results reported in PubChem BioAssay (NCATS).
# Some of the results follow. The main result of the screen is listed elsewhere. These columns were measured beside it and carry no call. The list favours compounds with an active or inconclusive main result. Words in brackets tell the shape of the fitted curve; partial curves, single points and poor fits give uncertain potencies.
# Assay: qHTS for identification of novel therapeutic agents for treatment of microphthalmiaassociated transcription factor (MiT) renal cell carcinoma (RCC) (AID 1963991)
# Details: CellTiter-Glo, 48 h; for z-score: stronger effect = lower value
# Outline: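 UOK109/UOK124/UOK145 (TFE3 fusions, three partners); 500 cells/well; MIPE v4.0, 1912 cpds, 11 conc.; 48 h, 37 C; CellTiter-Glo, 15 min RT; lum. Norm.: DMSO 100%, empty 0%.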
# [1] = TFE3-RCC UOK109 viability, measured here: UOK109 Z-AUC
# [2] = TFE3-RCC viability, measured here: UOK124 Z-AUC
# [3] = TFE3-RCC viability, measured here: UOK124 cell viability
# [4] = TFE3-RCC viability, measured here: UOK145 Z-AUC
# [5] = TFE3-RCC viability, measured here: UOK145 cell viability
Structure (SMILES),z-score [1],z-score [2],AC50 [3],z-score [4],AC50 [5]
CC(=O)NC(C)c1ccc(Oc2ccc(OC(C)C)cc2)cc1 (stereo not given),0.698,0.979,"29.6 µM [falling, single point]",0.749,"23.5 µM [falling, partial curve, poor fit]"
COc1cc2c(cc1O)CCC1C2CC[C@@]2(C)C1CC[C@@H]2O (stereo not given in full),0.265,-0.462,"3.32 µM [falling, full curve]",0.285,"7.43 µM [falling, full curve]"
Cc1ccc(S(=O)(=O)Nc2nc3ccccc3nc2Nc2ccc3nsnc3c2)cc1,-0.572,-0.64,"0.229 µM [falling, full curve]",-0.369,"1.02 µM [falling, full curve]"
CCC(=C(CC)c1ccc(O)cc1)c1ccc(O)cc1,0.786,0.265,"14.8 µM [falling, partial curve]",-0.368,"29.6 µM [falling, single point]"
C=C1C(=O)O[C@H]2[C@@H]1CCC(C)=CCC[C@@]1(C)O[C@@H]21,0.315,-0.496,"14.8 µM [falling, partial curve]",0.492,"26.4 µM [falling, single point]"
C=C1C(=CC=C2CCCC3(C)[C@@H]([C@H](C)C=CC=CC(O)(CC)CC)CC[C@@H]23)C[C@@H](O)C[C@@H]1O (stereo not given in full),-1.3,-0.156,"23.5 µM [falling, single point]",0.257,"20.9 µM [falling, partial curve]"
Cn1c(=O)n(-c2ccc(C(C)(C)C#N)cc2)c2c3cc(-c4cnc5ccccc5c4)ccc3ncc21,-1.11,-0.745,"0.0187 µM [falling, full curve]",-2.93,"0.0118 µM [falling, full curve]"
N#Cc1ccc(COC[C@H]2O[C@@H](n3c(NCc4ccc(Cl)c(Cl)c4)nc4c(N)ncnc43)[C@@H](O)[C@@H]2O)cc1,0.483,-2.11,"0.118 µM [falling, full curve]",0.403,"7.43 µM [falling, partial curve]"
C[C@]12CC[C@@H]3c4ccc(O)cc4CC[C@H]3[C@H]1CC[C@H]2O,0.138,0.398,"23.5 µM [falling, single point]",0.188,"26.4 µM [falling, single point]"
Cn1c(NCCN(CCO)CCCc2ccc([N+](=O)[O-])cc2)cc(=O)n(C)c1=O,0.11,0.405,"23.5 µM [falling, single point]",0.313,"18.7 µM [falling, partial curve]"
C=CC[C@@H]1C=C(C)C[C@H](C)C[C@H](OC)[C@H]2O[C@@](O)(C(=O)C(=O)N3CCCC[C@H]3C(=O)O[C@H](C(C)=C[C@@H]3CC[C@H](O)[C@H](OC)C3)[C@@H](C)[C@@H](O)CC1=O)[C@@H](C)C[C@@H]2OC,0.269,0.267,"2.35 µM [falling, full curve]",-0.242,"5.9 µM [falling, partial curve]"
Cc1cc(OCCCc2c(C(=O)O)n(Cc3cccnc3)c3c(-c4c(COc5ccc(N6CCN([S+](C)(=O)[O-])CC6)cc5)nn(C)c4C)cccc23)cc(C)c1Cl,0.653,0.0109,"16.6 µM [falling, partial curve, poor fit]",0.381,"0.935 µM [falling, partial curve, poor fit]"
CS(=O)(=O)CCNCc1ccc(-c2ccc3ncnc(Nc4ccc(OCc5cccc(F)c5)c(Cl)c4)c3c2)o1,-2,-0.327,"20.9 µM [falling, partial curve]",-0.965,"14.8 µM [falling, partial curve]"
CN1CCC[C@H]1CCO[C@](C)(c1ccccc1)c1ccc(Cl)cc1,0.261,0.411,"37.2 µM [falling, single point]",0.0171,"37.2 µM [falling, partial curve, poor fit]"
COc1cc(C=CC(=O)CC(=O)C=Cc2ccc(O)c(OC)c2)ccc1O,-0.0278,-0.0234,"34 µM [falling, partial curve]",-0.601,"17.1 µM [falling, full curve]"
CCOC(=O)C1=C(N)Oc2ccc(Br)cc2C1C(C#N)C(=O)OCC (stereo not given),0.985,0.0868,"23.5 µM [falling, partial curve]",0.714,"20.9 µM [falling, partial curve, poor fit]"
Cc1ccc(NC(=O)Nc2cc(C(F)(F)F)ccc2F)cc1Nc1ccc2c(c1)NC(=O)C2=Cc1ccc[nH]1,0.37,-0.242,"20.9 µM [falling, partial curve]",-0.23,"20.9 µM [falling, partial curve]"

# Given as tab-separated lines: part of the list above
Structure (SMILES)	z-score [1]	z-score [2]	AC50 [3]	z-score [4]	AC50 [5]
COc1cc(C=CC(=O)CC(=O)C=Cc2ccc(O)c(OC)c2)ccc1O	-0.0278	-0.0234	34 µM [falling, partial curve]	-0.601	17.1 µM [falling, full curve]
CCOC(=O)C1=C(N)Oc2ccc(Br)cc2C1C(C#N)C(=O)OCC (stereo not given)	0.985	0.0868	23.5 µM [falling, partial curve]	0.714	20.9 µM [falling, partial curve, poor fit]

# Next part

Structure (SMILES),z-score [1],z-score [2],AC50 [3],z-score [4],AC50 [5]
CCCCCN=C(N)NN=Cc1c[nH]c2ccc(OC)cc12,-0.385,-0.474,"4.18 µM [falling, full curve]",-0.479,"7.43 µM [falling, full curve]"
COc1ccc(-c2oc3cc(OC)ccc3c2C(=O)c2ccc(C#N)cc2)cc1,0.345,0.229,"4.18 µM [falling, full curve, poor fit]",0.202,"11.8 µM [falling, partial curve]"
CC(=O)Nc1sc2c(c1-c1nc3ccccc3s1)CNC2,-0.0333,0.14,"29.6 µM [falling, partial curve, poor fit]",-0.753,"14.8 µM [falling, partial curve]"
CNS(=O)(=O)CCc1ccc2[nH]cc(C3CCN(C)CC3)c2c1,-0.339,0.354,"26.4 µM [falling, single point]",-0.998,"1.05 µM [falling, full curve]"
Cc1cc(Nc2cc(N3CCN(C)CC3)nc(C=Cc3ccccc3)n2)n[nH]1,-0.0936,-0.896,"12.1 µM [falling, partial curve]",-0.0258,"34 µM [falling, partial curve]"
CC[C@]12C=CCN3CC[C@@]4(c5cc([C@@]6(C(=O)OC)C[C@H]7C[C@@H](C(C)(F)F)CN(Cc8c6[nH]c6ccccc86)C7)c(OC)cc5N(C)[C@H]4[C@@](O)(C(=O)OC)[C@H]1OC(C)=O)[C@@H]32,-0.669,-1.71,"0.0372 µM [falling, full curve]",-1.71,"0.0833 µM [falling, full curve]"
O=C(c1ccc(C=Cc2n[nH]c3ccccc23)cc1)N1CCNCC1,0.493,0.351,"20.9 µM [falling, partial curve]",-0.163,"18.7 µM [falling, partial curve]"
COc1cc(OC)cc(-c2ccc3ncc4ccc(=O)n(-c5ccc(N6CCNCC6)c(C(F)(F)F)c5)c4c3c2)c1,-0.295,-0.773,"16.6 µM [falling, partial curve]",-1.09,"8.33 µM [falling, partial curve]"
COc1ccc(Cn2ccc3ccc(C(=O)NO)cc32)cc1,0.0219,-1.1,"6.62 µM [falling, single point]",0.278,"16.6 µM [falling, partial curve]"
COc1ccc2c(c1)CC[C@@H](CN(C)CC(=O)O)[C@H]2c1ccccc1,0.147,0.047,"4.69 µM [falling, full curve]",0.0995,"4.69 µM [falling, full curve]"
CCC(C=C[C@@H]1OC(=O)C=C[C@H]1C)=C[C@H](C)CC=CC(C)=C[C@@H](C)C(=O)[C@@H](C)[C@H](O)[C@@H](C)CC(C)=CC(=O)O,0.476,0.183,"0.0392 µM [falling, full curve]",0.257,"0.0621 µM [falling, full curve]"
COc1cc(N2CCC(C(N)=O)CC2)ccc1Nc1nc(N)c(Cl)c(Nc2ccccc2S(=O)(=O)C(C)C)n1,-0.722,-0.374,"0.0935 µM [falling, partial curve, poor fit]",0.00706,"9.35 µM [falling, partial curve]"
COc1ccc2cc1Oc1ccc(cc1)C[C@H]1c3cc(c(OC)cc3CCN1C)Oc1c(OC)c(OC)cc3c1[C@H](C2)N(C)CC3,-0.211,0.216,"11.8 µM [falling, partial curve, poor fit]",0.15,"14.8 µM [falling, partial curve, poor fit]"
CC[C@H](NC(=O)[C@H](C)NC)C(=O)N1C[C@@H](O)C[C@H]1Cc1c(-c2[nH]c3cc(F)ccc3c2C[C@H]2C[C@H](O)CN2C(=O)[C@H](CC)NC(=O)[C@H](C)NC)[nH]c2cc(F)ccc12,-1.45,-0.73,"1.87 µM [falling, full curve]",-0.992,"2.09 µM [falling, full curve]"
CN(C)C1CCN(C(=O)c2ccc(NC(=O)Nc3nc(N4CCOCC4)nc(N4CCOCC4)n3)cc2)CC1,-0.371,-1.04,"0.166 µM [falling, full curve]",-0.99,"0.743 µM [falling, full curve]"
C1=CCOCc2cc(ccc2OCCN2CCCC2)Nc2nccc(n2)-c2cccc(c2)OCC1,-0.799,-0.718,"5.26 µM [falling, full curve]",-1.3,"6.62 µM [falling, partial curve]"
